Measured values as given in PubChem BioAssay AID758 (NMMLSC, 2007).
Hit rate of the full screen: of about 190,000 compounds, about 110 (0.058%) were called active. This list was built around the results that the source calls inconclusive (neither active nor inactive); the mix of calls is not that of the screen.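 Rule for the calls: active = fluorescent GTP binding to Rab7 beads changed by at least 20 points from the 100% baseline, either direction, mostly lower; inconclusive = compound itself probably fluorescent, or too few beads counted; inactive = the rest.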

Each compound was assayed on Rab7 GTPase wild type (dog), Bodipy-FL-GTP binding (assay: modulators of GTP binding to Rab7, primary screen, biochemical, wildtype, multiplex bead flow cytometry (AID 758;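 note: median green fluorescence of bound Bodipy-FL-GTP per Rab7 bead population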)). Conditions: GST-Rab7 beads, fluorescent GTP binding, at 10 µM, actives lie on both sides, untreated = 100%, excess cold GTP = 0%.

| SMILES | GTP binding activity (percent of control) |
| --- | --- |
| N=c1n(CCN2CCCC2)c2ccccc2n1CC(O)c1ccco1 (stereo not given) | inconclusive: 99% |
| Cc1ccc(S(=O)(=O)N(C)CC(=O)N2CCN(C(=O)c3ccco3)CC2)cc1 | inconclusive: 95% |
| CCn1c(C)nc2cc(C(=O)NNC(=O)c3ccc(Cl)nc3)ccc21 | inconclusive: 96% |
| CC(C)NC(=O)COC(=O)c1ccccc1C(=O)c1ccccc1 | inconclusive: 93% |
| COc1ccc(S(=O)(=O)Nc2cc3c(cc2C(C)=O)OCO3)cc1 | inactive: 93% |
| COc1ccccc1NC(=O)COC(=O)c1ccccc1C(=O)N1CCN(c2ccccc2)CC1 | inactive: 98% |
| O=C(NC1CCCCCC1)c1cc(=O)[nH]c2ccc(S(=O)(=O)N3CCOCC3)cc12 | inactive: 92% |
| CCOC(=O)N1CCC(N2Cc3cccc(C(=O)Nc4ccc(F)cc4)c3C2=O)CC1 | inconclusive: 87% |
| Cc1nnc2ccc(-c3cccc(NC(=O)c4ccco4)c3)nn12 | active: 77% |
| Cc1nn(-c2ccc(Cl)cc2Cl)c(C)c1C(=O)O | inconclusive: 96% |
| O=C(COC(=O)c1ccc(O)cc1)Nc1ccc(Cl)cc1 | inactive: 91% |
| Nc1nc(SCC(=O)Nc2ccccc2)nc2nc3c(cc12)CCCC3 | inconclusive: 96% |
| CC(=O)c1cccc(NC(=O)C(=O)c2cn(CC(=O)N3CCCCC3)c3ccccc23)c1 | inconclusive: 94% |
| Cc1ccc(N(CC(O)CN2CCCC2)S(=O)(=O)c2ccc(C)cc2)cc1 (stereo not given) | inconclusive: 96% |
| CC1CCN(CCCCOc2ccc([N+](=O)[O-])cc2)CC1 | inconclusive: 94% |
| CC(=O)Nc1ccc(S(=O)(=O)NCCSCc2c(Cl)cccc2Cl)cc1 | inconclusive: 101% |
| C/C(=N\NC(=O)c1c[nH]c2ccccc12)c1ccc(C)o1 | inactive: 92% |
| CCCCCC(=O)N1CC2(C)CN(C(=O)CCCCC)CC(C)(C1)C2=O | inconclusive: 103% |
| Oc1ccc(N=Cc2cc(Br)c(N3CCOCC3)o2)cc1 | inactive: 97% |
| COc1ccc(-c2cc(C#N)nc(N3CCNCC3)n2)cc1 | inactive: 113% |

| SMILES | GTP binding activity (percent of control) |
| --- | --- |
| Cc1cccc(NC(=O)CCc2ccccc2)c1 | inconclusive: 106% |
| Cc1ccc(NC(=O)C2CCCCC2C(=O)O)cc1Cl (stereo not given) | inconclusive: 85% |
| CCOC(=O)c1ccccc1NC(=O)/C(C)=C/C(=O)O | inactive: 100% |
| Nc1ccc(-c2nc3ccc(N)cc3[nH]2)cc1 | inconclusive: 96% |
| O=C(COc1ccccc1C(=O)Nc1ccccc1)c1ccc(Br)cc1 | inconclusive: 99% |
| O=C(CCc1ccccc1)Nc1nc2nc(-c3ccccc3)cc(=O)n2[nH]1 | inconclusive: 94% |
| CCCn1cc(CN2CCCC(CNC(=O)c3ccc(F)cc3)C2)c(C)n1 (stereo not given) | inconclusive: 136% |
| Cc1ccccc1S(=O)(=O)NC1OC(=O)C(Cl)=C1Cl (stereo not given) | inconclusive: 92% |
| CC(=O)N1CCn2c3ccc(C)cc3c3cccc1c32 | inactive: 102% |
| COc1ccccc1-c1nc(SC)n[nH]1 | inactive: 97% |
| O=C(Nc1cccn(Cc2c(Cl)cccc2Cl)c1=O)c1c(Cl)cccc1Cl | inconclusive: 104% |
| CN(C)S(=O)(=O)c1cccc(NC(=S)NCc2ccc3c(c2)OCO3)c1 | inactive: 104% |
| COc1cc(/C=N/NC(=O)CCc2c(C)n[nH]c2C)ccc1O | inconclusive: 104% |
| CCc1ccc(NC(=O)CSc2nnc(SCC(=O)Nc3ccc(CC)cc3)n2N)cc1 | inconclusive: 99% |
| CCSc1nnc(-c2ccc(Cl)cc2)c2ccccc12 | inconclusive: 90% |
| Cc1ccc2cn[nH]c2c1N | inconclusive: 93% |
| COc1ccccc1-c1nnc(SCC(=O)N2CCOCC2)n1-c1ccccc1 | inconclusive: 102% |
| CCc1nnc(NC(=O)[C@@H](NC(=O)c2cc(OC)cc(OC)c2)C(C)C)s1 | inactive: 92% |
| Cc1sc2nc(-c3cccnc3)nc(Cl)c2c1-c1ccccc1 | inconclusive: 102% |
| Cc1ccc2sc(NNC(=O)c3cc(=O)c4ccccc4o3)nc2c1C | inactive: 100% |

Part of the list above, bar-delimited.
SMILES | GTP binding activity (percent of control)
CCOC(=O)N1CCC(N2Cc3cccc(C(=O)Nc4ccc(F)cc4)c3C2=O)CC1 | inconclusive: 87%
Cc1nnc2ccc(-c3cccc(NC(=O)c4ccco4)c3)nn12 | active: 77%

Next structures

| SMILES | GTP binding activity (percent of control) |
| --- | --- |
| Cc1cc(NS(=O)(=O)c2ccc(Nc3nc(-c4sc(N)nc4C)cs3)cc2)no1 | inactive: 89% |
| O=C(NCc1cccs1)c1cc(-c2ccccc2)on1 | inconclusive: 95% |
| COc1cc(/C=N/NC(=O)C(Cc2c[nH]c3ccccc23)NC(=O)OCC(C)C)cc([N+](=O)[O-])c1O (stereo not given) | inactive: 91% |
| CC1(c2ccc(Cl)cc2)NC(=O)CS1 (stereo not given) | inactive: 97% |
| Cc1ccc(C(=O)O/N=C/C2=C(Cl)c3ccccc3CC2)cc1 | inconclusive: 91% |
| CSc1nc(-c2ccccc2)cn1-c1ccc(NC(C)=O)cc1 | inconclusive: 92% |
| CN(C)S(=O)(=O)c1cc(NC2CC(=O)N(c3ccc(F)cc3)C2=O)ccc1Cl (stereo not given) | inconclusive: 95% |
| O=C(O)c1ccc(Nc2nc(-c3cccnc3)nc3ccccc23)cc1 | inconclusive: 85% |
| CSCCC(NC(=O)c1ccccc1C)C(=O)O (stereo not given) | inconclusive: 105% |
| O=[N+]([O-])c1ccccc1/C=C/C=N/Nc1ccc(S(=O)(=O)Nc2ccc(Cl)cc2)cc1[N+](=O)[O-] | inactive: 97% |
| COC(=O)CSc1nc2c(c(=O)[nH]c(=O)n2C)n1CCC(C)C | inconclusive: 105% |
| COc1cc(/C=C2/SC(=Nc3ccc(O)cc3)NC2=O)cc(OC)c1O | inactive: 86% |
| O=S(=O)(Nc1cccc(-c2cn3cccnc3n2)c1)c1ccc(Cl)cc1 | inconclusive: 94% |
| O=C(CSc1nc2ccccc2c(=O)[nH]1)N1CCCCCC1 | inconclusive: 97% |
| O=C(COc1ccc2ccccc2c1)Nc1ccc2c3c(cccc13)CC2 | inconclusive: 94% |
| COc1ccccc1NC(=O)c1c(N=Cc2ccccc2O)cnn1C | inconclusive: 94% |
| N#Cc1c(-c2ccccc2)nc(SCC(=O)Nc2ccccc2)[nH]c1=O | inconclusive: 67% |
| CN(CCNC(=O)C1(O)c2ccccc2NC(=O)N1c1ccccc1)Cc1ccccc1 (stereo not given) | inconclusive: 103% |
| COc1ccccc1NS(=O)(=O)c1cc(NC(=O)c2ccccc2F)ccc1N1CCOCC1 | inconclusive: 94% |
| CCSc1nnc(-c2cc(Br)ccc2N=Cc2c(C)[nH]n(-c3ccccc3)c2=O)c(=O)[nH]1 | inconclusive: 91% |

Compounds shown so far that contain an aryl methoxy group:

| SMILES | GTP binding activity (percent of control) |
| --- | --- |
| COc1ccc(S(=O)(=O)Nc2cc3c(cc2C(C)=O)OCO3)cc1 | inactive: 93% |
| COc1ccccc1NC(=O)COC(=O)c1ccccc1C(=O)N1CCN(c2ccccc2)CC1 | inactive: 98% |
| COc1ccc(-c2cc(C#N)nc(N3CCNCC3)n2)cc1 | inactive: 113% |
| COc1ccccc1-c1nc(SC)n[nH]1 | inactive: 97% |
| COc1cc(/C=N/NC(=O)CCc2c(C)n[nH]c2C)ccc1O | inconclusive: 104% |
| COc1ccccc1-c1nnc(SCC(=O)N2CCOCC2)n1-c1ccccc1 | inconclusive: 102% |
| CCc1nnc(NC(=O)[C@@H](NC(=O)c2cc(OC)cc(OC)c2)C(C)C)s1 | inactive: 92% |
| COc1cc(/C=N/NC(=O)C(Cc2c[nH]c3ccccc23)NC(=O)OCC(C)C)cc([N+](=O)[O-])c1O (stereo not given) | inactive: 91% |
| COc1cc(/C=C2/SC(=Nc3ccc(O)cc3)NC2=O)cc(OC)c1O | inactive: 86% |
| COc1ccccc1NC(=O)c1c(N=Cc2ccccc2O)cnn1C | inconclusive: 94% |
| COc1ccccc1NS(=O)(=O)c1cc(NC(=O)c2ccccc2F)ccc1N1CCOCC1 | inconclusive: 94% |
